Molecules are shown by their SMILES.

The nature of this series: Organic thin film solar cell with poly(3-hexylthiophene) donor, photoelectric conversion efficiency (Table 2). The conditions noted are these: fullerene derivative as electron acceptor, equal weight to regioregular poly(3-hexylthiophene) lot 15409BE; AM1.5G, 100 mW/cm^2.

With `COC(=O)CCCC1(c2ccccc2)C23c4c5c6c7c8c9c(c%10c%11c2c2c%12c4c4c%13c5c5c7c7c8c8c%14c9c%10c9c%10c%11c2c2c%11c%12c4c4c%12c%13c5c5c7c7c8c8c%14c9c9c%10c2c2c%11c4c4c%12c5c7c5c8c9c2c45)C613` (stereo not shown) [[60] PCBM, [6,6]-phenyl C61-butyric acid methyl ester, reference compound], the “Photoelectric conversion efficiency (%)” value was 2.3%.

(Values after patent US20110001093A1, “FULLERENE DERIVATIVE” (SUMITOMO CHEMICAL COMPANY LIMITED, priority 2007, published 2011).)
